# Results of single-concentration screens

Mtb cholesterol medium: 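Growth of Mycobacterium tuberculosis over 4 days (cholesterol / DPPC medium with tyloxapol); the read-out is not stated. Concentration: 50 µM. The record gives no direction; compounds that gave an IC50 in retests scored well above the rest, so higher reads as more growth inhibition. Size under these conditions: about 69,000 compounds, about 370 of them at 50% or above in at least one test.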
Mtb glucose medium: 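Growth of Mycobacterium tuberculosis over 3 days (7H9 medium with glucose and tyloxapol); the read-out is not stated. Compounds at 50 µM. Direction is inferred from retests: higher values go with more growth inhibition. About 69,000 compounds were tested under these conditions; 1.1% (about 760) showed 50% or more at least once.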

Values are the deposited “Percent Effect”, in %. The record does not define 0% and 100%; most values in the screen are far below 50% and negative numbers occur (in some assays of this library far below -100). The compounds are a random part of those screened. Two or more numbers in one place are separate tests of the same structure; such repeats can differ widely.

structure	Mtb cholesterol medium	Mtb glucose medium
COCC(C)NC(=O)c1cc(Br)c2c(c1)OCCO2 (stereo unspecified)	-14.01%	-22.03%
[H][C@@]12CS(=O)(=O)C[C@]1([H])N(Cc1cnc(C)nc1)CCN2C(=O)C1CCC1	5.868%	16.81%
CSCc1cccc(NC(=O)N2CCC(N3CC=CC3)C2)c1 (stereo unspecified)	-21.92%	0.8132%
Cc1cc(C2CCC2)nc(N(C)CCc2ccccn2)n1	22.82%	54.45%
CC(C)N1CCCC(Cc2nccnc2Cl)CC1 (stereo unspecified)	1.32%	8.561%
O=C(O)c1ccccc1-c1ccc(CN2CCCC(O)C2)cc1 (stereo unspecified)	-22.53%	-21.6%
CC(C)N(C)Cc1cnc2n1CCN(C(=O)Cc1ccccn1)C2.O=C(O)C(F)(F)F.O=C(O)C(F)(F)F	-20.38%	-33.42%
[H][C@@]12CN(C(=O)c3cnccn3)C[C@]1([H])C(=O)N(Cc1cccc(C)c1)C2	-11.11%	-1.277% and 4.86%
COc1cccc(C(=O)N2CCCC(c3cc(C)[nH]n3)C2)c1OC (stereo unspecified)	2.307%	16.98%
O=C(O)C(F)(F)F.O=C1COC2(CCN(C(=O)c3ccoc3)CC2)CN1Cc1ccccn1	2.618%	-5.403%
C=C(C)COc1cccc(CN(C)C(C)c2ccncn2)c1 (stereo unspecified)	14.09%	11.82%
Cc1ccsc1[C@@H]1CCN(C(=O)Cn2cc3ccccc3n2)C[C@H]1O	-5.445%	2.608% and -7.253%
O=C(NCc1ccc(-n2cncn2)nc1)c1ccc2c(c1)CCO2	-10.04%	-3.687%
COCCCN1CCCC1c1noc(C2CC2)n1 (stereo unspecified)	-6.677%	-20.42%
Cn1c(C2CC2)nc2c1CCN(CC(=O)Nc1nncs1)C2	0.2625%	5.674%
CCOc1ccc(CN[C@@H]2COC[C@H]2c2ccc(F)cc2)cc1.O=C(O)CC(O)(CC(=O)O)C(=O)O	0.2138%	-2.239%
COCC(=O)N1CCC(c2cncc(-c3cccc(F)c3)n2)CC1	-6.629%	18.84%
COCC(c1cccc(C(F)(F)F)c1)N(C)C(=O)c1ccoc1 (stereo unspecified)	12.68%	19.92%
CCNc1ncc(C(=O)N(C)CCc2nc3cc(Cl)ccc3[nH]2)cn1	0.6964%	-5.016%
CS(=O)(=O)NCc1cnc2n1CCN(Cc1ccsc1)CC2.O=C(O)C(F)(F)F	-14.52%	-14.12%
Cc1cccc(CSc2nnc(C)n2CC(N)=O)c1	3.412%	6.71%
COC(=O)C(C)(C)NC(=O)C1CC(=O)N(C)C1 (stereo unspecified)	-5.794%	-5.623%
CC(Cn1cccn1)NCc1csc(-c2ccccc2)n1 (stereo unspecified)	34.86%	39.45%
[H][C@]12CN(c3nc(C)cc(C)n3)CC[C@@]1(O)CCN(S(=O)(=O)N(C)C)C2	-5.948%	-2% and -8.588%
N#Cc1cccc(N2CCC3(CCC(=O)N(CC4CCCO4)C3)CC2)n1 (stereo unspecified)	7.351%	-9.866%
CN(C)C(=O)N1CCC2(CC1)NC(=O)c1ccccc12.Cl	11.85%	-6.745% and -7.764%
CCc1cnc2c(c1Nc1cccc(OC)c1)c(=O)n(C)c(=O)n2C	-1.426%	10.35%
CNC(C)Cc1ccccc1Sc1ccc(O)cc1.Cl (stereo unspecified)	26.7%	33.97% and 9.132%
Cc1cc(CN2CCN(CC(O)c3ccc(C)c(C)c3)CC2)no1 (stereo unspecified)	-3.642%	-25.5%
COCc1ccccc1C(=O)NS(=O)(=O)CCCC#N	8.027%	15.49% and -1.981%
CC1(C)CC(CN2CCC3(CCC(=O)N(C4CCC4)C3)CC2)CCO1 (stereo unspecified)	11.98%	4.023% and -1.837%
O=C(c1cncc(NCC2COc3ccccc3C2)n1)N1CCCCC1 (stereo unspecified)	-14.73%	-6.108%
CC(c1cccnc1)N(C)Cc1ccccn1 (stereo unspecified)	7.87%	-12.44%
CC(C)n1c2ccccc2c2c1cc(C(=O)N(C)C)n2C	2.117%	-4.756%
CCOc1ccccc1C(CC(=O)Nc1ccccn1)NC(C)=O (stereo unspecified)	-2.188%	3.693%
[H][C@@]12CCN(C(=O)COC)[C@]1([H])C(=O)N(CCC)C(=O)N2Cc1cccs1	-4.27%	-7.076% and -58.07%
Cc1ccc(C(CNCc2cccc3c2OCO3)N2CCOCC2)o1 (stereo unspecified)	-2.868%	-14.75%
CN(Cc1ccccc1)C(=O)CCN1C[C@H](C2CC2)[C@@H](N(C)C)C1	6.579%	-31.97% and -1.381%
[H][C@@]12COC[C@]1(CNC(=O)c1ccco1)CN(Cc1cccc(F)c1)C2	-2.186% and -10.24%	-9.147%
Cc1ccc(Cl)c(C(C(=O)O)N(C)Cc2cnn(C)c2)c1 (stereo unspecified)	4.776%	5.302%

Once more, the final 3:

structure,Mtb cholesterol medium,Mtb glucose medium
CN(Cc1ccccc1)C(=O)CCN1C[C@H](C2CC2)[C@@H](N(C)C)C1,6.579%,-31.97% and -1.381%
[H][C@@]12COC[C@]1(CNC(=O)c1ccco1)CN(Cc1cccc(F)c1)C2,-2.186% and -10.24%,-9.147%
Cc1ccc(Cl)c(C(C(=O)O)N(C)Cc2cnn(C)c2)c1 (stereo unspecified),4.776%,5.302%

Source: ChEMBL document CHEMBL3988442, “University of Dundee, Small-Polar-MMV Screening Library” (2021).